Reference: PubChem BioAssay AID1259424 (University of Nebraska Medical Center, 2018)

Purpose: 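Seek colon cancer survival genes behaving like KSR1, using a six-gene signature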 (primary screen)
System: human HCT116 colon cancer cells
Reagent: siRNA pool against human genes, 50 nM
Detection: 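Six signature mRNAs by branched-DNA multiplex assay, scaled to two housekeeping genes and non-targeting median, log2; matched to mean KSR1 knockdown profile by Pearson correlation and euclidean distance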
Scale: mean correlation with KSR1 profile: higher = expression change more like KSR1 knockdown
In all, the deposit lists about 14,000 reagents; below is an unselected part. 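Higher correlation or smaller distance means closer resemblance to KSR1 loss; control wells, including KSR1 knockdowns, recur on many plates.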 Further read-outs or replicates are left out here. Not given: the time to read-out.

gene | mean correlation with KSR1 profile
SLC39A10 | 0.22
OGFOD2 | 0.587
CCL5 | 0.202
TNFRSF12A | -0.0419
TTI1 | 0.316
PDZK1IP1 | -0.199
GNAI2 | -0.468
APOC4 | -0.262
PLEKHG6 | -0.257
MID1IP1 | -0.482
UBE2T | 0.0451
ADHFE1 | -0.89
APBB1IP | 0.313
CLEC1B | -0.0675
MT-ND4L | -0.319
C1orf54 | 0.141
NKIRAS2 | 0.0129
FOSL1 | 0.126
CASP10 | -0.44
ANKRD55 | 0.371

The list goes on (4 carried over from the part before).
gene | mean correlation with KSR1 profile
NKIRAS2 | 0.0129
FOSL1 | 0.126
CASP10 | -0.44
ANKRD55 | 0.371
CACNA1I | -0.179
KCNK15 | 0.127
UHMK1 | -0.145
ABCB4 | 0.19
ARFGEF3 | -0.119
BRME1 | 0.0629
CXXC5 | -0.0353
SH3RF1 | -0.504
ZNF521 | 0.277
BEX4 | 0.323
NPC2 | -0.337
KLK8 | -0.359
KRR1 | 0.549
NME8 | -0.00906
FANCC | -0.458
CFAP61 | 0.265
CAV1 | 0.152
SUPT20H | -0.529
ZNF205 | -0.206
MCTP2 | -0.0193
PMM1 | -0.0567
ELP5 | -0.0421
TM9SF2 | 0.173
CLK4 | 0.597
HIVEP2 | 0.536
SLC38A1 | 0.58
AGL | -0.483
HBZ | 0.807
MAPT | -0.00217
SLC31A1 | -0.303
